# Source: US9180094B2, “High porosity materials, scaffolds, and method of making” (The Texas A&M University System, priority 2011, dated 2015)
# Legend:
# [1] = PFDMA HIPE formation with surfactants; type: physicochemical; conditions: surfactant, DI water (2, 0.4, 8 g) vortexed 5 minutes
# [2] = Tack-free time studies of polyHIPE emulsions with different initiators; type: physicochemical; conditions: emulsions prepared with 5 wt. % initiator; preliminary tack-free time studies
Compound,HIPE Formed [1],HIPE Formed ([1]; listed as PGPR),time to cure of polyHIPE emulsion [2]
Span 85,no,–,–
polyglycerol polyricinoleate [PGPR 4125],yes,form stable HIPE,–
PEG 600 Dilaurate,no,–,–
sorbitan monooleate [Span 80],did not stabilize and no,–,–
"CC(C)(C#N)N=NC(C)(C)C#N [AIBN, azobis-isobutyronitrile]",–,–,about 1.5 hours
"O=C(OOC(=O)c1ccccc1)c1ccccc1 [BPO, benzoyl peroxide]",–,–,about 1.5 hours
CCCCCCCC/C=C\CCCCCCCC(=O)OCCOCC(OCCO)C1OCC(OCCO)C1OCCO (stereo not drawn) [Tween 80],no,–,–
N.N.O=S(=O)(O)OOS(=O)(=O)O [ammonium persulfate],–,–,7 to 12 h
